Among the data in doi:10.1101/2025.11.07.687155 are binding values, retold here.

By UniProt entry, the sequences of proteins in these tests, tags left out. Residues count along the entry.
UniProt O14656, residues 21-332: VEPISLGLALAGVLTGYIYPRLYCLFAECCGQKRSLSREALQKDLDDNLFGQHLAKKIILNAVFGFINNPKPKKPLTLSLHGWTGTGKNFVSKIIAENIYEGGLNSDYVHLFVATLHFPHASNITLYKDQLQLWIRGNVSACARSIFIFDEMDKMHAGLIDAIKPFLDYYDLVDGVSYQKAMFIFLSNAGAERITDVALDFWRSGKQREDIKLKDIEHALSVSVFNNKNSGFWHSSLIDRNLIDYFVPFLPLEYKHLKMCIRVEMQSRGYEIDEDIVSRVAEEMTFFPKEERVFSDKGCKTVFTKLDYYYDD

No constants are given. Whether binding was seen depends on the method and setting. Binding seen in cells or lysates may run through a third protein. These calls come from enrichment with a bait or labelling near it, and not all partners need be listed.

The target of the assay is Torsin1A-TurboID-V5 (human) (UniProt O14656). Put plainly: proximity labelling.

B1: chloride channel CLIC-like protein 1 (CLCC1) (protein, UniProt Q96S66 19-551)
chain: HDDDWIDPTDMLNYDAASGTMRKSQAKYGISGEKDVSPDLSCADEISECYHKLDSLTYKIDECEKKKREDYESQSNPVFRRYLNKILIEAGKLGLPDENKGDMHYDAEIILKRETLLEIQKFLNGEDWKPGALDDALSDILINFKFHDFETWKWRFEDSFGVDPYNVLMVLLCLLCIVVLVATELWTYVRWYTQLRRVLIISFLFSLGWNWMYLYKLAFAQHQAEVAKMEPLNNVCAKKMDWTGSIWEWFRSSWTYKDDPCQKYYELLLVNPIWLVPPTKALAVTFTTFVTEPLKHIGKGTGEFIKALMKEIPALLHLPVLIIMALAILSFCYGAGKSVHVLRHIGGPESEPPQALRPRDRRRQEEIDYRPDGGAGDADFHYRGQMGPTEQGPYAKTYEGRREILRERDVDLRFQTGNKSPEVLRAFDVPDAEAREHPTVVPSHKSPVLDTKPKETGGILGEGTPKESSTESSQSAKPVSGQDTSGNTEGSPAAEKAQLKSEAAGSPDQGSTYSPARGVAGPRGQDPVSSPCG
B1: the binding entry is reported as “binds”.
